Measurements taken from PMC3648559.
These are yes or no findings as the source states them, for the method shown. In cells and extracts the contact can be indirect. Some results given as binding are weak or reduced against the parent protein; the word gives no strength.

Chains of the proteins cited; added tags and fusions are not shown.
UniProt P31749: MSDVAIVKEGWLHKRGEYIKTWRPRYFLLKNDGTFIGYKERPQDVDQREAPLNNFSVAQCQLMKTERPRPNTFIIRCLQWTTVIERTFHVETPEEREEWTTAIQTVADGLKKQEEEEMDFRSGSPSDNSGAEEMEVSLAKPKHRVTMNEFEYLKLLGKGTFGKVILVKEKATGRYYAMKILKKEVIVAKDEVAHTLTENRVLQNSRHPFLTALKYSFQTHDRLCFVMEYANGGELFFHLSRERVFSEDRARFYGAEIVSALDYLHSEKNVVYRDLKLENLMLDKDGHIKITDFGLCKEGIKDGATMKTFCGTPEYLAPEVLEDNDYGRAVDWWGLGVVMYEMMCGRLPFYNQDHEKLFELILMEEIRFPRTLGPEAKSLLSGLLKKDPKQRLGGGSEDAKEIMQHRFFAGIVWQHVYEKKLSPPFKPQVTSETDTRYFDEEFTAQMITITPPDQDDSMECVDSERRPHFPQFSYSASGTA

Molecular target: CA916798 (human (endogenous in A549))
Assay: co-IP; endogenous proteins in lysates of A549 and A549/CDDP cells (20 mM Tris, 150 mM NaCl, 1% TritonX-100); IP with anti-CA916798 and blot for p-AKT1 (ser473), and the reverse; Protein A-Sepharose; naive IgG as negative control

- binding: binds
Substance: phosphorylated AKT1 (ser473) (from UniProt P31749 1-480)
